Assay results published in patent publication US10705101B2, “Determination of the unbound free fatty acid profiles in biological and industrial specimens” (priority 2013, dated 2020).

B1: ADIFAB2: acrylodan-labeled (lysine 27) mutant FABP probe: L72A (protein, UniProt P02693 2-132, looked up, variant L72A)
Fatty acid-binding protein, …: AFDGTWKVDRNENYEKFMEKMGINVVKRKLGAHDNLKLTITQEGNKFTVKESSNFRNIDVVFELGVDFAYSAADGTELTGTWTMEGNKLVGKFKRVDNGKELIAVREISGNELIQTYTYEGVEAKRIFKKE
modifications: acrylodan label on K27
notes: acrylodan-labeled (lysine 27) mutant FABP probe: L72A
B2: L10P7 A4 L30C: acrylodan-labeled mutant FABP probe: Y14L, M18L, K27A, L30C, G31Y, A73L, Y117A (protein, UniProt P02693 2-132, looked up, variant Y14L M18L K27A L30C G31Y A73L Y117A)
Fatty acid-binding protein, …: B1 Fatty acid-binding protein, … with Y14L, M18L, K27A, L30C, G31Y, A72L, A73L, Y117A
modifications: acrylodan label
notes: acrylodan-labeled mutant FABP probe: Y14L, M18L, K27A, L30C, G31Y, A73L, Y117A
B3: L2P22 G6: acrylodan-labeled mutant FABP probe: M18I, G31Y, A73G (protein, UniProt P02693 2-132, looked up, variant M18I G31Y A73G)
Fatty acid-binding protein, …: B1 Fatty acid-binding protein, … with M18I, G31Y, A72L, A73G
modifications: acrylodan label
notes: acrylodan-labeled mutant FABP probe: M18I, G31Y, A73G
B4: L1P8 H2: acrylodan-labeled mutant FABP probe: Y14M, L38M, L72W (protein, UniProt P02693 2-132, looked up, variant Y14M L38M L72W)
Fatty acid-binding protein, …: B1 Fatty acid-binding protein, … with Y14M, L38M, A72W
modifications: acrylodan label
notes: acrylodan-labeled mutant FABP probe: Y14M, L38M, L72W
B5: L11P7 B3 V26C: acrylodan-labeled mutant FABP probe: M21F, V26C, L72A, L78V, L102V (protein, UniProt P02693 2-132, looked up, variant M21F V26C L72A L78V L102V)
Fatty acid-binding protein, …: B1 Fatty acid-binding protein, … with M21F, V26C, L78V, L102V
modifications: acrylodan label
notes: acrylodan-labeled mutant FABP probe: M21F, V26C, L72A, L78V, L102V

Columns and labels:
[1] = Probe calibration by titration with FFA / FFA-BSA complexes: PA; format: binding; details: for Rm PA: R value (550 nm/457 nm) at saturation with PA; for Q PA: ratio of intensity at 457 nm with no FFAu bound to that at saturation
Procedure: (§1) Calibration: Each probe is calibrated to the extent that the constants in Equation 2 are well determined for all FFAu to be included in profile calculations. Equation 2, which is the form of equation 1 for a single FFAu, relates the FFAu concentration to the equilibrium dissociation constant (Kd), fluorometric constants (Q and Rm) and the measured R values.
(§2) The calibration parameters are determined essentially as described in U.S. Pat. No. 7,601,510 which is incorporated herein by reference and (Huber et al Biochemistry (2006) 45:14263-14274) where the calibrated ADIFAB2 probe was used to generate FFA-BSA complexes with accurate and well buffered FFAu concentrations. To calibrate probes with substantially higher affinities than used in U.S. Pat. No. 7,601,510 and (Huber et al Biochemistry (2006) 45:14263-14274) a boot strap method is used in which a probe having higher affinities is calibrated with ADTFAB2. Such a probe is then used to generate FFA-BSA complexes with FFAu concentrations from 0.1 to 10 nM and these complexes are then used to calibrate other high affinity probes.
(§3) Probe calibration involves titrating the probes with either (i) un-buffered FFA or (ii) BSA-buffered FFA stocks. The un-buffered titrations involve measuring the R-value of a 1 μM probe solution as it is slowly titrated to saturation with small aliquots of a 100 to 250 μM FFA stock (Richieri G V et al. (1992) J Biol Chem 267: 23495-23501, Richieri G V et al. (1999) Mol Cell Biochem 192: 87-94). In this case, the total FFA concentration for each point in the titration is known and a nonlinear fit to the titration data yields the full set of fluorometric constants. In an un-buffered FFA titration, probe concentration is a key variable because the probe binds FFA, directly affecting the FFAu value.
(§4) Alternatively, in a BSA-buffered FFA calibration, the probe solution is titrated with a series of FFA-BSA complexes (600 μM BSA with [FFAu] ranging from 0.1 nM to 4 μM). The titration samples are FFA-BSA complex diluted 50-fold in Measuring Buffer. Probe is added to a concentration of 0.5 μM and the R-value is measured. Because BSA buffers FFAu, its concentration remains constant (i.e. known), even after the addition of probe. […] At least two calibrations with each of the up to 15 different FFA are performed for each probe.
(§5) All of the probes reveal substantial differences for different FFAu and in many cases these differences are related to the aqueous solubility of the FFA. For example, of the FFA in Table 3, SA is the least soluble and MA the most soluble. As discussed in (Richieri G V et al (2000) Biochemistry 39: 7197-7204) the tendency of natural proteins and FABPs, in particular, is for binding constants to be largest (smallest Kd) for the least soluble FFA and conversely for the most soluble FA. In two cases, ADIFAB2 and L11, Kd for SA is substantially the smallest and MA the largest and that pattern is more or less maintained for most of the other probes in Table3 with the exception of L83. In that case MA has the largest affinity while SA's more than 10 fold smaller. To some extent the other calibrations constants follow that behavior; Q is largest for the smallest Kd and Rmax is often largest, so that the probe response tends to be larger for FFA with the larger affinities. The ability to generate mutations that overcome the “natural thermodynamics” allows for probes that have a wide range of specificities and sensitivities than enable the determination of FFAu profiles.

[2] = Probe calibration by titration with FFA / FFA-BSA complexes: DHA; format: binding; details: for Rm DHA: R value (550 nm/457 nm) at saturation with DHA; for Q DHA: ratio of intensity at 457 nm with no FFAu bound to that at saturation
Procedure: as §1, §2, §3, §4, §5

[3] = Probe calibration by titration with FFA / FFA-BSA complexes: POA; format: binding; details: for Rm POA: R value (550 nm/457 nm) at saturation with POA; for Q POA: ratio of intensity at 457 nm with no FFAu bound to that at saturation
Procedure: as §1, §2, §3, §4, §5

[4] = Probe calibration by titration with FFA / FFA-BSA complexes: LNA; format: binding; details: for Rm LNA: R value (550 nm/457 nm) at saturation with LNA; for Q LNA: ratio of intensity at 457 nm with no FFAu bound to that at saturation
Procedure: as §1, §2, §3, §4, §5

[5] = Probe fluorescence ratio at zero FFAu (Ro); details: R (550 nm/457 nm) for zero FFAu
[6] = Probe calibration by titration with FFA / FFA-BSA complexes: LA; format: binding; details: for Rm LA: R value (550 nm/457 nm) at saturation with LA; for Q LA: ratio of intensity at 457 nm with no FFAu bound to that at saturation
Procedure: as §1, §2, §3, §4, §5

[7] = Probe calibration by titration with FFA / FFA-BSA complexes: AA; format: binding; details: for Rm AA: R value (550 nm/457 nm) at saturation with AA; for Q AA: ratio of intensity at 457 nm with no FFAu bound to that at saturation
Procedure: as §1, §2, §3, §4, §5

[8] = Probe calibration by titration with FFA / FFA-BSA complexes: OA; format: binding; details: for Rm OA: R value (550 nm/457 nm) at saturation with OA; for Q OA: ratio of intensity at 457 nm with no FFAu bound to that at saturation
Procedure: as §1, §2, §3, §4, §5

[9] = Probe calibration by titration with FFA / FFA-BSA complexes: MA; format: binding; details: for Rm MA: R value (550 nm/457 nm) at saturation with MA; for Q MA: ratio of intensity at 457 nm with no FFAu bound to that at saturation
Procedure: as §1, §2, §3, §4, §5

Molecule | Rm PA [1] | Q PA [1] | Rm DHA [2] | Q DHA [2] | Rm POA [3] | Q POA [3] | Rm LNA [4] | Q LNA [4] | Ro [5] | Rm LA [6] | Q LA [6] | Rm AA [7] | Q AA [7] | Rm OA [8] | Q OA [8] | Rm MA [9] | Q MA [9]
B1 | 1.16 | 6.6 | 0.64 | 3.3 | 0.79 | 4.5 | 0.80 | 5.0 | 0.087 | 0.73 | 4.0 | 0.91 | 5.0 | 0.76 | 5.0 | 0.63 | 3.7
B2 | 0.29 | 1.5 | 3.2 | 15.8 | 0.62 | 2.9 | 1.4 | 6.7 | 0.260 | 1.8 | 8.2 | 2.5 | 11.2 | 1.2 | 4.9 | 0.2 | 1.0
B3 | 1.21 | 4.0 | 1.13 | 3.4 | 1.15 | 2.7 | 1.21 | 3.8 | 0.200 | 0.99 | 2.6 | 0.83 | 2.8 | 0.97 | 2.4 | 1.3 | 3.3
B4 | 0.17 | 0.44 | 0.18 | 0.28 | 0.26 | 0.47 | 0.06 | 0.27 | 0.620 | 0.08 | 0.25 | 0.08 | 0.24 | 0.07 | 0.20 | 0.60 | 0.76
B5 | 5.6 | 21.4 | 8.7 | 27.4 | 4.5 | 17.5 | 5.9 | 21.8 | 0.191 | 6.2 | 23.1 | 8.3 | 27.0 | 7.2 | 25.7 | 2.6 | 10.5

Substitutions are numbered along the chain they refer to. Numbers in names are those of the source.
